The results in this text go back to paper PMC8813966.

In data set [1] the target is T1, GST-LcKNAT1 (UniProt A0A5C0C733). As to the kind of experiment: competition with a labelled probe. The settings on record: LightShift Chemiluminescent EMSA kit (Thermo Scientific), pH and temperature not stated, recombinant protein, protein details: N-terminal GST (pGEX-4T-1), label: none (competitor).
Data set [2] deals with T1, GST-LcKNAT1. As to the kind of experiment: EMSA. The settings on record: unlabeled same-sequence competitor abolishes binding dose-dependently (100x, 500x); LightShift Chemiluminescent EMSA kit (Thermo Scientific); pH and temperature not stated; recombinant protein; protein details: N-terminal GST (pGEX-4T-1); label: 3' biotin.

The exact form of at least one protein or probe is not confirmed. For part of these data: No signal at the amounts used counts as a negative. At least one verdict was read from the data and is not stated in words by the source.

“GATTGTCTTTTTGCTAGTTTGTCCCCCCCCCGGCAGATCTGGGTTCTGGTG (double strand) [LcEIL3 mutant probe1]”: in the data set with GST-LcKNAT1 [1] (mutant competitor vs labeled N3), the binding result was “no binding”.

“ACTTAATTTGGTCACAGCCGTTATGACTAGGTTCATGTCCAGCCATACATGC (double strand) [LcEIL2 probe]”: in the data set with GST-LcKNAT1 [2], the binding result is recorded as “binds”.

As for “GATTGTCTTTTTGCTAGTTTGTGTCAGGTCAGGCAGATCTGGGTTCTGGTG (double strand) [LcEIL3 probe1]”, in the data set with GST-LcKNAT1 [2], the binding result is given as “binds”.

Take “GGATTGGTTTTTGTATATGTGGTCAAAAAGGTCACTTGTTTGCTAAATTAGAG / CTCTAATTTAGCAAACAAGTGCCTTTTTGACCACATATACAAAAACCAATCC [LcEIL3 probe2]”: the binding result with GST-LcKNAT1 [2] is listed as “binds”.

On to “ACTTAATTTGGTCACAGCCGTTACCCCCCCCCTCATGTCCAGCCATACATGC (double strand) [LcEIL2 mutant probe]”, for which, in the data set with GST-LcKNAT1 [1] (mutant competitor vs labeled N1), the binding result is listed as “no binding”.

Regarding “GGATTGGTTTTTGTATATGTGTTTTTTTTTTTTTCTTGTTTGCTAAATTAGAG (double strand) [LcEIL3 mutant probe2]”, in the data set with GST-LcKNAT1 [1] (mutant competitor vs labeled N5), the binding result was “no binding”.
